Measured values reported in publication doi:10.1101/2025.01.16.633295.

Target: Flag-DIC1B, purified
Experiment: pull-down

B1: Myc-ANXA7, purified (protein, UniProt Q6IRJ7 1-485)
chain: MSYPGYPPTGYPPFPGYPPAGQESSFPTSGQYPYPSGFPPMGGGAYPPAPSGGYPGAGGYPSPGGYPAPGGYPGTLNPGGPPSYPGGQGFGAPPGGAGFSGYPQPPAQSYGGGPAQVPVPGGFPGGQMPSQYPGGQSPYPGQIDTESFSSYPAFSPVSLDYSSDPAAMTQGTQGTIRPASNFDAMRDAEILRKAMKGFGTDEQAIVDVVSNRSNDQRQQIKAAFKTMYGKDLIKDLKSELSGNMEELILALFMPPTYYDAWSLRKAIQGAGTQERVLIEILCTRTNQEIRDIVRCYQLEFGRELERDIRSDTSGHFERLLVSMCQGNRDESPSINHQMAQEDAQRLYQAGEGRLGTDESCFNMILATRSFPQLRATMEAYSRMANRDLLSSVSREFSGYVESGLKTILQCALNRPAFFAERLYYSMKGAGTDDSTLVRIVVTRSEIDLVQIKQMFTQMYQKTLSTMIASDTSGDYRKLLLAIVGQ
binding: binds

Results are given in words; binding and its absence hold for the method and conditions named. Binding calls can cover weak binding; strength is not graded here. Tags and fused reporters may be left off the sequences shown.
